Like-named read-outs stand apart in the source and are kept apart here. These are yes or no findings as the source states them, for the method shown. In cells and extracts the contact can be indirect. These calls come from enrichment with a bait or labelling near it, and not all partners need be listed. For some of these results: No binding means not detected with the bait. For some of these results: Sequences can lack the tags named with a protein.
Legend:
Assay in all cases: affinity purification with mass spectrometry; co-IP from SK-BR-3 cells overexpressing TMEM120B or TMEM120B-ΔCCD, gel pieces analysed by nano-LC-MS/MS
[1] = biological target: T1, TMEM120B-Myc (pCMV6-TMEM120B-Myc), full length (human) (UniProt A0PK00)
T1 sequence: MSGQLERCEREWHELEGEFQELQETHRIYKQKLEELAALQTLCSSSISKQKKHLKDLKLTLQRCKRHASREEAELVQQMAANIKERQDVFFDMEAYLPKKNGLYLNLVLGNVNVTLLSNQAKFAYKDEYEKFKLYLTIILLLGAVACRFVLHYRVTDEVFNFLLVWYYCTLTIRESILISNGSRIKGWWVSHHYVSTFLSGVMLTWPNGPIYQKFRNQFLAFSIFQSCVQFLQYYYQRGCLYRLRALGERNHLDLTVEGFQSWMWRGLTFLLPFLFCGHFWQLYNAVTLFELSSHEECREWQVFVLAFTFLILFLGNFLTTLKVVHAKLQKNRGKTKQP

Amino acid sequences for entries named in this document (tags omitted).
UniProt Q8IWT3: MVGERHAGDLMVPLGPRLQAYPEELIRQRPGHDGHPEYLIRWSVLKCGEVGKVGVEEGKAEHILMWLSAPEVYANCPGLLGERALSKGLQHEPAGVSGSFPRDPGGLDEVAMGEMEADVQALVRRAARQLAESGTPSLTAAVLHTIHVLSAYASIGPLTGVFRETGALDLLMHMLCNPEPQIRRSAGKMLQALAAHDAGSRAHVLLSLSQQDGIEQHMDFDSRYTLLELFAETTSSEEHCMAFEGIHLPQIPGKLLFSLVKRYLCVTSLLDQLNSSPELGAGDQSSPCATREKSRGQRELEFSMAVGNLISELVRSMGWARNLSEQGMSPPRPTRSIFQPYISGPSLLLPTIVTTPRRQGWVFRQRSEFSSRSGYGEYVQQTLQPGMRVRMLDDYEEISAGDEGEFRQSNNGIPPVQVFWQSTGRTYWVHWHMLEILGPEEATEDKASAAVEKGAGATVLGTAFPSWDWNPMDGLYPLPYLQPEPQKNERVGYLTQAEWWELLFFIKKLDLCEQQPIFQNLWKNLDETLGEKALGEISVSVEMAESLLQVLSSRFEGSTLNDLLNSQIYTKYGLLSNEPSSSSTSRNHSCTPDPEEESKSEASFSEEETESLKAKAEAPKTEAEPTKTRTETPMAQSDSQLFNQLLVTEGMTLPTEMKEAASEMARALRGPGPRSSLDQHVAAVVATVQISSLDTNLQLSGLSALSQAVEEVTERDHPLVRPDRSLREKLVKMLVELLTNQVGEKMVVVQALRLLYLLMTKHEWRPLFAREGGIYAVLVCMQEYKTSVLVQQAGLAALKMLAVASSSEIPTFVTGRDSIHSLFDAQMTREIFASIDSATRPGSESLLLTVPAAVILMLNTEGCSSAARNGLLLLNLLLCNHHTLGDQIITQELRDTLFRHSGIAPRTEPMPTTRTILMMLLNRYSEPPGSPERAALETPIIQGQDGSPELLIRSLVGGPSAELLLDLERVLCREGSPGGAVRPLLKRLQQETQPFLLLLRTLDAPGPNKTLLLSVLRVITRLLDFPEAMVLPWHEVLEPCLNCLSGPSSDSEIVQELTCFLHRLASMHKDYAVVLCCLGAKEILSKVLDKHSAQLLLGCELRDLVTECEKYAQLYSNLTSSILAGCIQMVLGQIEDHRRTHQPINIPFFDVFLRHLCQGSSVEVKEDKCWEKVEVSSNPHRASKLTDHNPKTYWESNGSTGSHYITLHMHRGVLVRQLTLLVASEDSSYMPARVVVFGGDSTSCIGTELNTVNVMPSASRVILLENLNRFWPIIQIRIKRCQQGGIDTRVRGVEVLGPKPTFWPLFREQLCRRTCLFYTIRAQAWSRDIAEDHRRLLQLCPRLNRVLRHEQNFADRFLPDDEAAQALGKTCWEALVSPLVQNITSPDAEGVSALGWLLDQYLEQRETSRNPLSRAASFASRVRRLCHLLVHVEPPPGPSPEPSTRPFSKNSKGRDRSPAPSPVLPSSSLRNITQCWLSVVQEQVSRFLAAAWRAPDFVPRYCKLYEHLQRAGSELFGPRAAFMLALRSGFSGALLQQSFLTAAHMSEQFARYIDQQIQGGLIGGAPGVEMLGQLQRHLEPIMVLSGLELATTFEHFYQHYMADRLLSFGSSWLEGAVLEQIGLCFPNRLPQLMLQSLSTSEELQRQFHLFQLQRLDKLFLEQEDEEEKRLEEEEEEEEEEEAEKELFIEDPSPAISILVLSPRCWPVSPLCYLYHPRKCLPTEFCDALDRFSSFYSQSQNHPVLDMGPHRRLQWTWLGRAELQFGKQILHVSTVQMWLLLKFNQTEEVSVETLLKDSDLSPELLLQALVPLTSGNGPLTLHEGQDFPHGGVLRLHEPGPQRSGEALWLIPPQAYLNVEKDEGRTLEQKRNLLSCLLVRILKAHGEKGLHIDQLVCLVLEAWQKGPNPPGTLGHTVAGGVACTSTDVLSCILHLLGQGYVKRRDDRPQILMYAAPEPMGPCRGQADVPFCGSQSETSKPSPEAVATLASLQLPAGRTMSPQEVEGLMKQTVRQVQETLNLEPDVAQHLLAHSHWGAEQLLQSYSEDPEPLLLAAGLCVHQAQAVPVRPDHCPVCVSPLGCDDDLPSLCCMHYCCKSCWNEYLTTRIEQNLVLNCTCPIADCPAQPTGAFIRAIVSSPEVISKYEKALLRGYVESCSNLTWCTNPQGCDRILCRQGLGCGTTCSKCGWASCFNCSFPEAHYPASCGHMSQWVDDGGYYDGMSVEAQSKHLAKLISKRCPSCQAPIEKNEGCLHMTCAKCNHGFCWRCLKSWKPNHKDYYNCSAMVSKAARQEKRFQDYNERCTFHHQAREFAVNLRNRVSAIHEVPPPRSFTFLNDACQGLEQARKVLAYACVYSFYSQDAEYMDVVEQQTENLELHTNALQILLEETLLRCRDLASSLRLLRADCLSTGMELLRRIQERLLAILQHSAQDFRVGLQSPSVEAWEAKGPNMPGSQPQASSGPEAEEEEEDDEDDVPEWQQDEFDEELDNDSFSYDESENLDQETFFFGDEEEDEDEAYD
UniProt P35579: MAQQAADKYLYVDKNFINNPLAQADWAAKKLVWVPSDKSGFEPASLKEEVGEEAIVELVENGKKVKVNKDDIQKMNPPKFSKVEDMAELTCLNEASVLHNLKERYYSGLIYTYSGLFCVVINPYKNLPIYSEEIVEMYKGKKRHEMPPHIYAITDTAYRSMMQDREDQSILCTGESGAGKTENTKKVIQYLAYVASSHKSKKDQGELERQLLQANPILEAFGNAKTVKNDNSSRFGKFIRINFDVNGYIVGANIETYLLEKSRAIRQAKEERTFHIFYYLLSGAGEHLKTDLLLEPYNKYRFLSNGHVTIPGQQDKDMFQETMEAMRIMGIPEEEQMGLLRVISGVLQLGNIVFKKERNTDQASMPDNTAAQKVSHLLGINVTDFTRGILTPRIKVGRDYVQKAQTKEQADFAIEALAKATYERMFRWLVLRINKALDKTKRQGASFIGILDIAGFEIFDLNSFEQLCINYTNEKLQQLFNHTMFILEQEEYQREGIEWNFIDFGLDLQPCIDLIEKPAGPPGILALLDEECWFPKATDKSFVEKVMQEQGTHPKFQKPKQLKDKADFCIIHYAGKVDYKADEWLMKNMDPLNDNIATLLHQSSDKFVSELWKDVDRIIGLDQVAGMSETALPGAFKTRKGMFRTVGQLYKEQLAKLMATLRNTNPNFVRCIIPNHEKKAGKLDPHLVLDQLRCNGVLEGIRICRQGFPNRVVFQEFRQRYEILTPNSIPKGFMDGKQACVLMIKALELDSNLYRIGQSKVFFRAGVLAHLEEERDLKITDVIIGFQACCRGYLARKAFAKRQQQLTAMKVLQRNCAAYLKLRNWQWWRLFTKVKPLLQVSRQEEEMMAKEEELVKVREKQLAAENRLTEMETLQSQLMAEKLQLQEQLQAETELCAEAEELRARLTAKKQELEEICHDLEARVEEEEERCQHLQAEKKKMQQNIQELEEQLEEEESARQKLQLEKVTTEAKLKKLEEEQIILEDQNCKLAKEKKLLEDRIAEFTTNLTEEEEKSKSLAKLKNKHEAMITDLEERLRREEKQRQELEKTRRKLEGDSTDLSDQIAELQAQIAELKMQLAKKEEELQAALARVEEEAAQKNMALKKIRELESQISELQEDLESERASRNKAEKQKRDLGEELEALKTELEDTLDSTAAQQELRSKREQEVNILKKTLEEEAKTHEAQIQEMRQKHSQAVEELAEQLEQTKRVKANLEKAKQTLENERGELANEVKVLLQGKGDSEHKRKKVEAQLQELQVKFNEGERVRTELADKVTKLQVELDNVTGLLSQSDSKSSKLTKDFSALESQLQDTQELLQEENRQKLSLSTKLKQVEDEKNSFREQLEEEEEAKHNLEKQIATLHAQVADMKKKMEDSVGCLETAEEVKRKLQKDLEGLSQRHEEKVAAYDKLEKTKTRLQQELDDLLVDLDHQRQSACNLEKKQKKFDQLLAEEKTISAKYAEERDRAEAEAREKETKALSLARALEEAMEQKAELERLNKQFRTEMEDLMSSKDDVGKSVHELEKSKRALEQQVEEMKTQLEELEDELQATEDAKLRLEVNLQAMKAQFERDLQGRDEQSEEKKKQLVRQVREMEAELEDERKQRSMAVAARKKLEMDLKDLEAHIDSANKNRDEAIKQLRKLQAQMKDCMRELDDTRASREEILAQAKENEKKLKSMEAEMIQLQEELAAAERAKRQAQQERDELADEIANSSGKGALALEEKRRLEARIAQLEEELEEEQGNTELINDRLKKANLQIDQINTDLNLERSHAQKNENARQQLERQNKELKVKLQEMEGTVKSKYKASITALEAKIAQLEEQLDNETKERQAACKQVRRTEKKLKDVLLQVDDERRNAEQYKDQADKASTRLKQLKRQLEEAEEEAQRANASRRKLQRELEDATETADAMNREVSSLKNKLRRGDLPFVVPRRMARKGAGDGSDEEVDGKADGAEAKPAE

[2] = biological target: TMEM120B-ΔCCD-Myc (pCMV6-TMEM120B-ΔCCD-Myc) (human)
[3] = biological target: T1, TMEM120B-Myc (pCMV6-TMEM120B-Myc), full length (human); remark: listed apart in the source

CUL9, endogenous in SK-BR-3 cells (from UniProt Q8IWT3 1-2517)
binding [1]: binds

Myosin heavy chain 9 (MYH9) in SK-BR-3 cells (from UniProt P35579 1-1960)
binding [1]: binds

B1: BRSK2, endogenous in SK-BR-3 cells (protein, UniProt Q8IWQ3 1-736)
chain: MTSTGKDGGAQHAQYVGPYRLEKTLGKGQTGLVKLGVHCVTCQKVAIKIVNREKLSESVLMKVEREIAILKLIEHPHVLKLHDVYENKKYLYLVLEHVSGGELFDYLVKKGRLTPKEARKFFRQIISALDFCHSHSICHRDLKPENLLLDEKNNIRIADFGMASLQVGDSLLETSCGSPHYACPEVIRGEKYDGRKADVWSCGVILFALLVGALPFDDDNLRQLLEKVKRGVFHMPHFIPPDCQSLLRGMIEVDAARRLTLEHIQKHIWYIGGKNEPEPEQPIPRKVQIRSLPSLEDIDPDVLDSMHSLGCFRDRNKLLQDLLSEEENQEKMIYFLLLDRKERYPSQEDEDLPPRNEIDPPRKRVDSPMLNRHGKRRPERKSMEVLSVTDGGSPVPARRAIEMAQHGQRSRSISGASSGLSTSPLSSPRVTPHPSPRGSPLPTPKGTPVHTPKESPAGTPNPTPPSSPSVGGVPWRARLNSIKNSFLGSPRFHRRKLQVPTPEEMSNLTPESSPELAKKSWFGNFISLEKEEQIFVVIKDKPLSSIKADIVHAFLSIPSLSHSVISQTSFRAEYKATGGPAVFQKPVKFQVDITYTEGGEAQKENGIYSVTFTLLSGPSRRFKRVVETIQAQLLSTHDPPAAQHLSDTTNCMEMMTGRLSKCGSPLSNFFDVIKQLFSDEKNGQAAQAPSTPAKRSAHGPLGDSAAAGPGPGGDAEYPTGKDTAKMGPPTARREQP
binding [2]: no binding
binding [3]: binds
